{
  "source": "patent US20090023672",
  "target": "AGE-2 (glyceraldehyde-derived advanced glycation end product of human serum albumin) HSA glycated with D-glyceraldehyde at 37 C for 7 days, dialysed against PBS (Homo sapiens) (UniProt P02768)",
  "assay": "SELEX",
  "settings": "room temperature, counter-selected against HSA beads, single-stranded DNA",
  "note": "The exact form of at least one protein or probe is not confirmed.",
  "data": [
    {"sequence": "GCCAAGCCAGGGCGGGGTCATGTGGTTGTTTGACTTGATTGTGGCCGCTCAGTGCAGCCGA [AGE-2 aptamer 35]", "values": [
      {"measurement": "selection result", "setting": "purified native protein", "result": "selected"}
    ]},
    {"sequence": "GCCAATCGCCGCACCCACCCAACCCCTGCCACGGCTAGCAACTGCATCATCGCAACC [AGE-2 aptamer 23]", "values": [
      {"measurement": "selection result", "setting": "purified native protein", "result": "selected"}
    ]},
    {"sequence": "GCCATCCGTCCCCGGAACACTCACACACCCCATCCGCAACCCCCCCCACTCCACCGCC [AGE-2 aptamer 16]", "values": [
      {"measurement": "selection result", "setting": "purified native protein", "result": "selected"}
    ]},
    {"sequence": "GCGCACATATTACTTCCTCAATCAACGCCCACCGAACACTCCCGTCACACTACAACC [AGE-2 aptamer 17]", "values": [
      {"measurement": "selection result", "setting": "purified native protein", "result": "selected"}
    ]},
    {"sequence": "GCGGGACGCGCGGGAGGATCCGGGGGTTGTGCTTGGGTGGCCGGATGTCCGGTTATTGTTGT [AGE-2 aptamer 38]", "values": [
      {"measurement": "selection result", "setting": "purified native protein", "result": "selected"}
    ]},
    {"sequence": "GCGTGACACCTATCTAACCAACAGCCACCCATCCAACACCCGCTAACCCCACTCTCG [AGE-2 aptamer 22]", "values": [
      {"measurement": "selection result", "setting": "purified native protein", "result": "selected"}
    ]},
    {"sequence": "GGACAAGCAGAAGCGGTGAGTCGGTTTGTGTGGCATGCGGCGGTGGTTGCCTGTGTCCATCGA [AGE-2 aptamer 27]", "values": [
      {"measurement": "selection result", "setting": "purified native protein", "result": "selected"}
    ]},
    {"sequence": "GGACAAGCAGAAGCGGTGAGTCGGTTTGTGTGGCATGCGGCGGTGGTTGCCTGTGTCCATCGA [AGE-2 aptamer 36]", "values": [
      {"measurement": "selection result", "setting": "same printed sequence as SEQ 27, purified native protein", "result": "selected"}
    ]},
    {"sequence": "GGACAAGCATGGTGAGGCTAGGTTCGGCGGGTGCGGATGGCATTCGGTGGGATCTTTGGCGGGT [AGE-2 aptamer 26]", "values": [
      {"measurement": "selection result", "setting": "purified native protein", "result": "selected"}
    ]},
    {"sequence": "GGACAAGCTCTTGTGGCGGTTGGCCCCTTAGCGGTTCGGGAGTTTCACAGTCACGGTCGGGGTG [AGE-2 aptamer 29]", "values": [
      {"measurement": "selection result", "setting": "purified native protein", "result": "selected"}
    ]},
    {"sequence": "GGACAAGCTCTTGTGGCGGTTGGCCCCTTAGCGGTTCGGGAGTTTCACAGTCACGGTCGGGGTG [AGE-2 aptamer 37]", "values": [
      {"measurement": "selection result", "setting": "same printed sequence as SEQ 29, purified native protein", "result": "selected"}
    ]},
    {"sequence": "GGACCGTTTCACTCATTACCCCCCATCACACGCCACAGATACTACCCCATACACCCA [AGE-2 aptamer 18]", "values": [
      {"measurement": "selection result", "setting": "purified native protein", "result": "selected"}
    ]},
    {"sequence": "GGCAAGCTGTCCCTAGGCGGTGGGTAGCAAGTTCGTGGGCCGCGCAGTGTCTTGGCAGTTCC [AGE-2 aptamer 39]", "values": [
      {"measurement": "selection result", "setting": "purified native protein", "result": "selected"}
    ]},
    {"sequence": "GGCCAAGCAGGTAAGTGCGGGGTCCGGTTGGTTGTTCGGGTCTCGCGTGCAATATCACGTGT [AGE-2 aptamer 25]", "values": [
      {"measurement": "selection result", "setting": "purified native protein", "result": "selected"}
    ]},
    {"sequence": "GGCCAAGCAGGTAAGTGCGGGGTCCGGTTGGTTGTTCGGGTCTCGCGTGCAATATCACGTGT [AGE-2 aptamer 33]", "values": [
      {"measurement": "selection result", "setting": "same printed sequence as SEQ 25, purified native protein", "result": "selected"}
    ]},
    {"sequence": "GGCCAAGCAGGTAAGTGCGGGGTCCGGTTGGTTGTTCGGGTCTCGCGTGCAATATCACGTGT [AGE-2 aptamer 40]", "values": [
      {"measurement": "selection result", "setting": "listing 62, purified native protein", "result": "selected"}
    ]},
    {"sequence": "GGCCAAGCATCGATGCCCGTGTTGGCCTGTGCGGGGGATTGTAGTGTGCCTCGGGTGTGCATGAG [AGE-2 aptamer 28]", "values": [
      {"measurement": "selection result", "setting": "purified native protein", "result": "selected"}
    ]},
    {"sequence": "GGCCAAGCATCGATGCCCGTGTTGGCCTGTGCGGGGGATTGTAGTGTGCCTCGGGTGTGCATGAG [AGE-2 aptamer 32]", "values": [
      {"measurement": "selection result", "setting": "purified native protein", "result": "selected"}
    ]},
    {"sequence": "GGGCAAGCTGGTATAAGTATGCAATCTGCGGTGATATCCCATCAGTGTGTTTGGCTGTGGAT [AGE-2 aptamer 34]", "values": [
      {"measurement": "selection result", "setting": "purified native protein", "result": "selected"}
    ]},
    {"sequence": "GGGCAAGCTGGTATAAGTATGCAATCTGCGGTGATATCCCATCAGTGTGTTTGGCTGTGGAT [AGE-2 aptamer 41]", "values": [
      {"measurement": "selection result", "setting": "same printed sequence as SEQ 34, purified native protein", "result": "selected"}
    ]},
    {"sequence": "GGGCAAGCTGGTATAAGTATGCAATCTGCGGTGATATCCCATCAGTGTGTTTGGCTGTGTCTGGCT [AGE-2 aptamer 30]", "values": [
      {"measurement": "selection result", "setting": "purified native protein", "result": "selected"}
    ]},
    {"sequence": "GGTGCGTACCCACCCCCCAAACACCCAACTCCCACCACCTCGCCAACCCGAAAACAC [AGE-2 aptamer 21]", "values": [
      {"measurement": "selection result", "setting": "purified native protein", "result": "selected"}
    ]},
    {"sequence": "GTACATACACCGACCACCATCACAAGCACCAACTCACCAAACATGAACTACACCAAC [AGE-2 aptamer 19]", "values": [
      {"measurement": "selection result", "setting": "listing gtacata, purified native protein", "result": "selected"}
    ]},
    {"sequence": "GTACCTGCCCTCCCCGCGTTAAAATCACACTACAACACACCAATCGTAGAAAACTAA [AGE-2 aptamer 24]", "values": [
      {"measurement": "selection result", "setting": "purified native protein", "result": "selected"}
    ]},
    {"sequence": "GTCCCCATTTCCAGCCCCTTCTCATTCACCACTCACACAACCAATACAACCAGCCCA [AGE-2 aptamer 20]", "values": [
      {"measurement": "selection result", "setting": "purified native protein", "result": "selected"}
    ]},
    {"sequence": "GTGCAAGCTGATGGTTCGGTAGTTTCGGATGTTTGTGTCGTTGCTCGCGTTGTGAATGTGCT [AGE-2 aptamer 31]", "values": [
      {"measurement": "selection result", "setting": "purified native protein", "result": "selected"}
    ]}
  ]
}
